Results reported in patent US20170190788A1, “USES OF ANTI-HER3 ANTIBODIES FOR TREATING CANCER” (BULLDOG PHARMACEUTICALS, INC., priority 2014, published 2017).
Entries after “also recorded” stand apart in the source; their conditions may differ. For at least one compound, name, drawing or mass did not settle the structure.

How the values were obtained:
Assay type in all cases: cell-based
ErbB3 = conditions: HT29, A275, A2058, WM115; 24 hours; trametinib 10 or 100 nM, vemurafenib 100 to 1000 nM; ±10 nM NRG
[1] = test system: ErbB3 and AKT phosphorylation; experiment: NRG sensitivity: ErbB3 and AKT phosphorylation ELISA assays; conditions: trametinib 100 nM or vemurafenib 1 μM treated cells, titration of NRG
cell-surface ErbB3 = experiment: Cell-surface expressed ErbB3 by binding of fluorescently-labeled 2C2-YTE or NRG; conditions: HT29, A375, A2058, WM115; 100 nM trametinib or 1 μM vemurafenib, 24 hours, 37° C.

Structure (SMILES)	ErbB3 protein levels (total) (ErbB3)	phosphorylation of ErbB3 and AKT on NRG stimulation relative to untreated cells [1]	ErbB3 cell surface levels (cell-surface ErbB3)
CC(=O)Nc1cccc(-n2c(=O)n(C3CC3)c(=O)c3c(Nc4ccc(I)cc4F)n(C)c(=O)c(C)c32)c1 [trametinib]	increased; also recorded: upregulation of ErbB3 protein levels	several-fold increase in the maximum levels of phosphorylated ErbB3 and AKT; also recorded: several-fold increase of phosphorylation of ErbB3 and AKT	increased; also recorded: upregulation of ErbB3 cell surface levels
CCCS(=O)(=O)Nc1ccc(F)c(C(=O)c2c[nH]c3ncc(-c4ccc(Cl)cc4)cc23)c1F [vemurafenib]	–	several-fold increase in the maximum levels of phosphorylated ErbB3 and AKT; also recorded: several-fold increase of phosphorylation of ErbB3 and AKT	–
